According to the supplement of paper PMC6411743:
± gives the standard deviation of the averaged measurements. Only a part is listed here, and it is no random draw. Most entries show no effect beyond the scatter of the controls.

The chains behind the UniProt entries cited, without tags or fusion partners. Where a name states a change or a piece, a line headed by the entry shows the natural chain unless it says otherwise.
UniProt P28749: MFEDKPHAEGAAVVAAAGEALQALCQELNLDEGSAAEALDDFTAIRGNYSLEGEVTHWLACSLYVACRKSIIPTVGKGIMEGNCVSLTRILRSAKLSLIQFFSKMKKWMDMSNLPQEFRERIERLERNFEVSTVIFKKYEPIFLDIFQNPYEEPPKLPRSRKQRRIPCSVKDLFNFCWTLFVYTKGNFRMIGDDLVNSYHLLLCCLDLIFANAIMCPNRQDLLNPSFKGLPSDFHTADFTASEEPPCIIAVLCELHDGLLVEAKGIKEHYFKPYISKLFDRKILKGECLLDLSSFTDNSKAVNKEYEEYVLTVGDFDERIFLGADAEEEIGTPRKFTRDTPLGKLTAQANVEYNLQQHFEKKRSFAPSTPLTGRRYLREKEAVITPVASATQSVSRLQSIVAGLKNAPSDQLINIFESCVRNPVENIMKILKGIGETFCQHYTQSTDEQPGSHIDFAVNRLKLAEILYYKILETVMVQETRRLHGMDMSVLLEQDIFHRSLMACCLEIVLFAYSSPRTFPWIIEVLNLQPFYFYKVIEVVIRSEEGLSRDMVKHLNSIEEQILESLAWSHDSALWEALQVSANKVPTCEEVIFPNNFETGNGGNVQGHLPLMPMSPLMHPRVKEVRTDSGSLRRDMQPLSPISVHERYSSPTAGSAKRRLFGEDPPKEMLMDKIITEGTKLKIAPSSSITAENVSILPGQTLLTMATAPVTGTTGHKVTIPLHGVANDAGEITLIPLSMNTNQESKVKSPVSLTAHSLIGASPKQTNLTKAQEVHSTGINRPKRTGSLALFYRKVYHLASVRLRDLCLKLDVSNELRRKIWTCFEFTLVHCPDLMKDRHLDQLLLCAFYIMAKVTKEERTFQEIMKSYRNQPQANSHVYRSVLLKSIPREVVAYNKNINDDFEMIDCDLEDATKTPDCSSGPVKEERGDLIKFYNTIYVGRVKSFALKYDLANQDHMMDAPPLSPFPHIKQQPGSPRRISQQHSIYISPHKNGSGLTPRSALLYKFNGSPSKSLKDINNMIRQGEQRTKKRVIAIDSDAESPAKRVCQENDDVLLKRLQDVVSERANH
UniProt P33240: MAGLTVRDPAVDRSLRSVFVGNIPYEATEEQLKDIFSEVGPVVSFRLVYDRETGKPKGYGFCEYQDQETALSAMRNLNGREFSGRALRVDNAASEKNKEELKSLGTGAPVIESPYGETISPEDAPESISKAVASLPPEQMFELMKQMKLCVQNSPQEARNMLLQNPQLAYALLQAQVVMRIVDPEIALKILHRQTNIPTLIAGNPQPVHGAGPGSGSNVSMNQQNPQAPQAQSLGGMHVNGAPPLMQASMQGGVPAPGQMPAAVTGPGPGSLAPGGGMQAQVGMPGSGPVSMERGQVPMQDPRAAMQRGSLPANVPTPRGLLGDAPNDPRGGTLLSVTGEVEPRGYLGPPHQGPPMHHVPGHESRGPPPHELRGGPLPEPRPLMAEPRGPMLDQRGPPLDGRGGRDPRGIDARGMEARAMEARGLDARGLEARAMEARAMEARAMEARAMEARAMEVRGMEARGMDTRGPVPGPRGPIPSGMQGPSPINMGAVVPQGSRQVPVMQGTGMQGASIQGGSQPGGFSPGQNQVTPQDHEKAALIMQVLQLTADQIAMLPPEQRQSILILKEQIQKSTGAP
UniProt P19634, whole entry: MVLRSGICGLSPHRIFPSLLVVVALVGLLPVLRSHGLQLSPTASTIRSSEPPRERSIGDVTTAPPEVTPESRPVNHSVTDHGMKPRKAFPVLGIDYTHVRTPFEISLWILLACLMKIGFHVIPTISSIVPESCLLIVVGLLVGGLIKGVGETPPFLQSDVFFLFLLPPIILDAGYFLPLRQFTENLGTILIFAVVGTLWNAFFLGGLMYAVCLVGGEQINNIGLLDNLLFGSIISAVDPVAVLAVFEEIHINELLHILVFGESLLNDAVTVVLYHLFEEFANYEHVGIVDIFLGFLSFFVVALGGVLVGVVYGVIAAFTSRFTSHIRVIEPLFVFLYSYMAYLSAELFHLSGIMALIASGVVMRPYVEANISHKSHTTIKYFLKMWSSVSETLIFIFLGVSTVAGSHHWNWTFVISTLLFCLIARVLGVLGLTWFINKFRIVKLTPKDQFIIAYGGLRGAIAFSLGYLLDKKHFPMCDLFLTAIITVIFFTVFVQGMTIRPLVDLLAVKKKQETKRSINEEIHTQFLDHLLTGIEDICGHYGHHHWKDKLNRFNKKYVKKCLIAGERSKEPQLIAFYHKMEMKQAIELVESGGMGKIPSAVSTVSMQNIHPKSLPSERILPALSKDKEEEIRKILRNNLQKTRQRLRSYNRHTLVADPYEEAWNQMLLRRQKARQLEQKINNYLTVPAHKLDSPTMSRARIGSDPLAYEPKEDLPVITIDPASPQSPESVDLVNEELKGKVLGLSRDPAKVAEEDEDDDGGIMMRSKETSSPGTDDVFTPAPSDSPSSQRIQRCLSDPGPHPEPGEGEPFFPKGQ
UniProt P37198: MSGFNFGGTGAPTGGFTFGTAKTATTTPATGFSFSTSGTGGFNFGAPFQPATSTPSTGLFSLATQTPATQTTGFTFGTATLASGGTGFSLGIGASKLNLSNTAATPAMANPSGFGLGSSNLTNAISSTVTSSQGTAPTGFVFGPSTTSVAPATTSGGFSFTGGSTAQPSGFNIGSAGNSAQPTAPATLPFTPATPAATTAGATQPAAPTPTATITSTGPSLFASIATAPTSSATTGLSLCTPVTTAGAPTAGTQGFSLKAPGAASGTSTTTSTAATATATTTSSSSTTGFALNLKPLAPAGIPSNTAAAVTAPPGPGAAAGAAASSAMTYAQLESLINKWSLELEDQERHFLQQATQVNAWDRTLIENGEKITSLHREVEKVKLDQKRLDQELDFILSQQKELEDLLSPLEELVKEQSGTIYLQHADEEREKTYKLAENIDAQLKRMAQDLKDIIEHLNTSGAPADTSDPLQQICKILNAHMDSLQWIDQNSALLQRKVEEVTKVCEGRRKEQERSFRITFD
UniProt P23025: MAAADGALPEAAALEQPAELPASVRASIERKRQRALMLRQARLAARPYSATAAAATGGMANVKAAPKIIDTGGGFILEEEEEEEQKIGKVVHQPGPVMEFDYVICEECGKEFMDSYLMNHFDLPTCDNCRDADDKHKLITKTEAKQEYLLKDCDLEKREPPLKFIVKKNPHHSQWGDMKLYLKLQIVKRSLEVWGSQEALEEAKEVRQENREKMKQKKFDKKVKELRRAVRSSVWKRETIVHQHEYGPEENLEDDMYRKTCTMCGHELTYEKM
UniProt P23229: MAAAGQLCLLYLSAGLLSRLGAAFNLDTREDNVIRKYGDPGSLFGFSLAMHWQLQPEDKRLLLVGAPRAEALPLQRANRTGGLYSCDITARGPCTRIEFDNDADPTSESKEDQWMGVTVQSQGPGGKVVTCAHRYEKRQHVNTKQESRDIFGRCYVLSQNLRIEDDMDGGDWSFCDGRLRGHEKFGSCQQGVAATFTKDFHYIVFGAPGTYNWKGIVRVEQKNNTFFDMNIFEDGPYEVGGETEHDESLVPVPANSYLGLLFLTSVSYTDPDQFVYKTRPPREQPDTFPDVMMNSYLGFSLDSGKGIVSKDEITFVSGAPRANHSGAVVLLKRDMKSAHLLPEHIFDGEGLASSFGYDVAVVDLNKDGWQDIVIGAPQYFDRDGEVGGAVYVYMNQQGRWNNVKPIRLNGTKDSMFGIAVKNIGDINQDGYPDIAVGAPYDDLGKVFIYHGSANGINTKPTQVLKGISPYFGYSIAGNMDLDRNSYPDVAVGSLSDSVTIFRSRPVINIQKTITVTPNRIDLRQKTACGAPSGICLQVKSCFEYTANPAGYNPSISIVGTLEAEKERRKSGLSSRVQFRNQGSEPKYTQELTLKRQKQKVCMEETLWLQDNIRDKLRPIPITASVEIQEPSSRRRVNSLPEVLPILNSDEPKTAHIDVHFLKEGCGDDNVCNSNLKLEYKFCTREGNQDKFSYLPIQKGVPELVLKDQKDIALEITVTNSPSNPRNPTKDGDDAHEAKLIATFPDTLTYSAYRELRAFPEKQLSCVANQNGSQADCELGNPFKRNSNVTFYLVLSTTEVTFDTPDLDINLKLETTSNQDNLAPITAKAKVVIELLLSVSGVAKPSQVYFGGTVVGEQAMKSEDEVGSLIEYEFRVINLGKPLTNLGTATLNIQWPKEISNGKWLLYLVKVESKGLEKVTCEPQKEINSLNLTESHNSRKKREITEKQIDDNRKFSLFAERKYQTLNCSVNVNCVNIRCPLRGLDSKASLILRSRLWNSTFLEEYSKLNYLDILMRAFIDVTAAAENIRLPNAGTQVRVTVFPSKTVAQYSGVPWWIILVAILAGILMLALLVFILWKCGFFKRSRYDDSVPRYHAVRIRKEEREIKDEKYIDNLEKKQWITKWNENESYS
UniProt P24386: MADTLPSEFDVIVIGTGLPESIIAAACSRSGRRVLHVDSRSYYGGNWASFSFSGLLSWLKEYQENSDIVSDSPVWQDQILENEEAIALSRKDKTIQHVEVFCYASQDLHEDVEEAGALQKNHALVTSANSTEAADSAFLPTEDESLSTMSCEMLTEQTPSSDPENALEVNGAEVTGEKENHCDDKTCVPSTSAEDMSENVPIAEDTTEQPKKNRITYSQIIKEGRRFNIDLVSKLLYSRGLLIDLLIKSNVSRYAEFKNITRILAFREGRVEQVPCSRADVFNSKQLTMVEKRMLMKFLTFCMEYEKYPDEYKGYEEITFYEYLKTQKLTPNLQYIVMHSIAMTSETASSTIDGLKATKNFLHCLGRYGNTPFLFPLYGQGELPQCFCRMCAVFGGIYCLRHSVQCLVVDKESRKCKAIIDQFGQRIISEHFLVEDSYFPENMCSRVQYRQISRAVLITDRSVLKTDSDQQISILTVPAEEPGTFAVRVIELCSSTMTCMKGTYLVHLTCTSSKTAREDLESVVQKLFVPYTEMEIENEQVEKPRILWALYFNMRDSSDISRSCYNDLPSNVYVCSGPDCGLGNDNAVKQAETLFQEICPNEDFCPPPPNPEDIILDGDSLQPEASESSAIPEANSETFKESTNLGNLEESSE
UniProt P22033: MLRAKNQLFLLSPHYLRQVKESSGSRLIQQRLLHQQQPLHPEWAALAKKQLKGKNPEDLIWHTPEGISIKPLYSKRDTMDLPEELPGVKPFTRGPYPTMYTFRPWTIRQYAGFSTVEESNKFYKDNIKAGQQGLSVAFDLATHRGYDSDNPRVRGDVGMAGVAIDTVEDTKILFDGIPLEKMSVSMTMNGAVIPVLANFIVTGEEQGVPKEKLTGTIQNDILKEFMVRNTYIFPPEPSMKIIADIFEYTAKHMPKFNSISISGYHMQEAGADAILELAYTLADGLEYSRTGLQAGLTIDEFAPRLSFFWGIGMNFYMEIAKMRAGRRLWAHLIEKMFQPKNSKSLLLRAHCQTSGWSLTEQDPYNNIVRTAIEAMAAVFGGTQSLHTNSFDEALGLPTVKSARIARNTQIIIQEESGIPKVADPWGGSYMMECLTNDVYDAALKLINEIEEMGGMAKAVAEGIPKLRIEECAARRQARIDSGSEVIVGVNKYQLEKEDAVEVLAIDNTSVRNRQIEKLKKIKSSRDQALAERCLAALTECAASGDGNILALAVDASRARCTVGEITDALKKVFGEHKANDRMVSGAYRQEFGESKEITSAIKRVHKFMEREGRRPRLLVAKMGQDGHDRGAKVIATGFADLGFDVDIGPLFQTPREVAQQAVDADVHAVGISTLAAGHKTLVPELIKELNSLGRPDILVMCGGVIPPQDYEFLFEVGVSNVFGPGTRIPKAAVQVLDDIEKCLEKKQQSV
UniProt P29350: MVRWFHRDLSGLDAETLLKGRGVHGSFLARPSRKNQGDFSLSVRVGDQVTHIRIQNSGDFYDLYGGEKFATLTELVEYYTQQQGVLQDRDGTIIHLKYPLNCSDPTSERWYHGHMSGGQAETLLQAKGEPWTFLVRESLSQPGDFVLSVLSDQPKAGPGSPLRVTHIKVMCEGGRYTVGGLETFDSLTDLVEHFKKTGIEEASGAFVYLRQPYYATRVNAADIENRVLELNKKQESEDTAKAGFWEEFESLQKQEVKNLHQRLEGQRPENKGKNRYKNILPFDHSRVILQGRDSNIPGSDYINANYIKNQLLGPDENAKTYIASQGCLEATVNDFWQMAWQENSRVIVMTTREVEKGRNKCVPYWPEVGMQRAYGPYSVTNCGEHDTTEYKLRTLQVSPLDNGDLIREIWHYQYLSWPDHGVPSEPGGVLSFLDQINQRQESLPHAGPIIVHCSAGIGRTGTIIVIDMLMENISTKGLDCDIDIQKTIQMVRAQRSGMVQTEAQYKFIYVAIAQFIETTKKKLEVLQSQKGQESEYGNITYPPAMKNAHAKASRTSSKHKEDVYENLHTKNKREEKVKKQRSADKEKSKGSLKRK
UniProt P30626: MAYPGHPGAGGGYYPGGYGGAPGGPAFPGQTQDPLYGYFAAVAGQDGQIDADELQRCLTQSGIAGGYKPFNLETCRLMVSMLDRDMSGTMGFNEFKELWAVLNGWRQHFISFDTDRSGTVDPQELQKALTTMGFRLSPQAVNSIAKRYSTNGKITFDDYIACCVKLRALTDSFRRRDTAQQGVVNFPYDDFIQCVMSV

Compound: Nc1ncnc2c1ncn2[C@@H]1O[C@H](COP(=O)(O)OP(=O)(O)NP(=O)(O)O)[C@@H](O)[C@H]1O [adenylyl imidodiphosphate]
Test: NP40-soluble protein abundance relative to vehicle (solubility fold change) (ratio); higher = more soluble protein in presence of AMP-PNP
Summary of the method: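 Each value is a fold change relative to the detergent-processed vehicle, calculated per replicate from vsn-normalised intensities. Jurkat crude lysate received eight concentrations (0.1 to 10 mM) for 10 min at room temperature and 3 min at 37 °C, then was solubilised in 0.8% NP40 with benzonase (60 min, 4 °C). The ultracentrifuged supernatant was TMT-labelled and run by LC-MS/MS in three independent experiments.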

Target	NP40-soluble protein abundance (concentration: 0.1mM)	NP40-soluble protein abundance (concentration: 0.5mM)
SOAT1 (UniProt P35610)	1 ± 0.045	0.996 ± 0.037
RAB3B (UniProt P20337)	0.9909 ± 0.0063	0.964 ± 0.017
COIL (UniProt P38432)	0.982 ± 0.02	1.001 ± 0.0087
UniProt P26358 and related entries	0.995 ± 0.013	1.02 ± 0.031
RPL13 (UniProt P26373)	1.06 ± 0.022	1.01 ± 0.025
HMGCL (UniProt P35914)	0.968 ± 0.035	0.966 ± 0.015
IL2RG (UniProt P31785)	1.02 ± 0.044	0.985 ± 0.024
UniProt P18858 and related entries	1.01 ± 0.014	1 ± 0.02
TUBG1 (UniProt P23258)	1.04 ± 0.017	1.05 ± 0.037
UniProt P35606 and related entries	1.03 ± 0.019	1.02 ± 0.021
YWHAB (UniProt P31946)	1 ± 0.062	1.07 ± 0.088
UniProt P23771 and related entries	0.988 ± 0.011	0.981 ± 0.029
UniProt P20339 and related entries	0.995 ± 0.054	1.02 ± 0.053
UniProt P25788 and related entries	0.986 ± 0.011	0.985 ± 0.022
UniProt P24666 and related entries	1 ± 0.025	1.03 ± 0.032
UniProt P29144 and related entries	1.04 ± 0.045	0.989 ± 0.044
UniProt P28074 and related entries	1.02 ± 0.018	0.99 ± 0.097
ICAM3 (UniProt P32942)	0.963 ± 0.024	1.01 ± 0.059
UniProt P35251 and related entries	0.985 ± 0.012	1.06 ± 0.043
UniProt P19174 and related entries	1 ± 0.056	0.963 ± 0.081
UniProt P31948 and related entries	0.977 ± 0.025	0.999 ± 0.055
UniProt P17706 and related entries	0.973 ± 0.048	0.971 ± 0.018
UQCRC2 (UniProt P22695)	1.07 ± 0.04	1.02 ± 0.034
AKT2 (UniProt P31751)	0.972 ± 0.027	0.962 ± 0.016

Target	NP40-soluble protein abundance (concentration: 0.1mM)	NP40-soluble protein abundance (concentration: 0.5mM)
UniProt P30049	1.01 ± 0.018	0.996 ± 0.044
UniProt P28749 and related entries	0.977 ± 0.019	0.932 ± 0.04
UniProt P35221 and related entries	0.984 ± 0.043	0.98 ± 0.02
ALDH4A1 (UniProt P30038)	0.992 ± 0.024	0.975 ± 0.039
UniProt P36507	1.03 ± 0.031	1.06 ± 0.049
CPT2 (UniProt P23786)	1.01 ± 0.031	0.962 ± 0.058
ZNF8 (UniProt P17098)	0.9759 ± 0.0037	1.01 ± 0.052
POLR2E (UniProt P19388)	1.04 ± 0.031	1 ± 0.041
RRM1 (UniProt P23921)	1.04 ± 0.046	1.02 ± 0.11
PHB (UniProt P35232)	1 ± 0.016	1 ± 0.032
UniProt P22307 and related entries	0.994 ± 0.026	1.03 ± 0.045
UniProt P34896 and related entries	1.03 ± 0.025	1 ± 0.065
UniProt P20290 and related entries	0.974 ± 0.063	0.997 ± 0.045
UniProt P38398 and related entries	0.99 ± 0.061	0.978 ± 0.028
UniProt P18754-2|P18754	0.991 ± 0.015	1.04 ± 0.02
PSMC2 (UniProt P35998)	0.994 ± 0.019	0.98 ± 0.027
GM2A (UniProt P17900)	1 ± 0.025	0.991 ± 0.018
GNA15 (UniProt P30679)	0.945 ± 0.045	0.976 ± 0.015
UniProt P35611 and related entries	0.996 ± 0.028	0.995 ± 0.038
UBA1 (UniProt P22314)	1 ± 0.013	0.9988 ± 0.0066
GNL1 (UniProt P36915)	1.02 ± 0.05	1.02 ± 0.061
ERCC3 (UniProt P19447)	1 ± 0.018	0.996 ± 0.055
UniProt P30048 and related entries	0.98 ± 0.012	1.01 ± 0.023
FKBP2 (UniProt P26885)	0.992 ± 0.015	0.999 ± 0.018

Target	NP40-soluble protein abundance (concentration: 0.1mM)	NP40-soluble protein abundance (concentration: 0.5mM)
ZNF22 (UniProt P17026)	0.9665 ± 0.0054	0.982 ± 0.024
UniProt P23511 and related entries	1.2 ± 0.42	0.952 ± 0.039
PPM1A (UniProt P35813)	1 ± 0.032	1.04 ± 0.047
UniProt P20340-2	1.03 ± 0.021	1.05 ± 0.025
PPP2R1A (UniProt P30153)	1.01 ± 0.032	0.988 ± 0.011
ARID4A (UniProt P29374)	0.977 ± 0.026	1.01 ± 0.053
SP100 (UniProt P23497)	0.992 ± 0.041	0.988 ± 0.064
OSBP (UniProt P22059)	0.971 ± 0.026	0.951 ± 0.026
UniProt P31629	0.996 ± 0.064	1 ± 0.06
UniProt P25325 and related entries	0.993 ± 0.052	0.976 ± 0.033
UniProt P33240 and related entries	0.9953 ± 0.006	0.992 ± 0.051
UniProt P19838 and related entries	0.99 ± 0.021	0.987 ± 0.035
UniProt P22001	0.994 ± 0.03	0.997 ± 0.021
RPL4 (UniProt P36578)	1.07 ± 0.023	1.05 ± 0.058
UniProt P26639	1.02 ± 0.024	0.991 ± 0.056
SLC9A1 (UniProt P19634)	0.964 ± 0.036	0.964 ± 0.043
PSMB6 (UniProt P28072)	0.978 ± 0.0098	0.976 ± 0.042
NUP62 (UniProt P37198)	0.979 ± 0.01	1.01 ± 0.027
RPL12 (UniProt P30050)	1.01 ± 0.021	1.03 ± 0.022
CD82 (UniProt P27701)	1.02 ± 0.039	1.13 ± 0.17
UniProt P21675 and related entries	0.997 ± 0.052	0.997 ± 0.04
UniProt P27635 and related entries	0.999 ± 0.066	0.989 ± 0.082
UniProt P18859 and related entries	0.981 ± 0.098	0.966 ± 0.046
GOT1 (UniProt P17174)	1.007 ± 0.009	0.997 ± 0.023

Target	NP40-soluble protein abundance (concentration: 0.1mM)	NP40-soluble protein abundance (concentration: 0.5mM)
PRKCH (UniProt P24723)	1.02 ± 0.013	1 ± 0.012
ATP6V1E1 (UniProt P36543)	1 ± 0.0089	1.003 ± 0.0097
UniProt P17252	0.996 ± 0.011	1.03 ± 0.046
CCNA2 (UniProt P20248)	0.974 ± 0.022	0.99 ± 0.076
XPA (UniProt P23025)	0.9888 ± 0.0059	0.972 ± 0.019
UniProt P28838 and related entries	0.98 ± 0.012	0.976 ± 0.017
GRK5 (UniProt P34947)	0.996 ± 0.033	1.02 ± 0.014
TMEM11 (UniProt P17152)	1 ± 0.065	0.997 ± 0.1
UniProt P17096 and related entries	0.975 ± 0.036	1.06 ± 0.27
UniProt P27540 and related entries	0.977 ± 0.022	1.03 ± 0.02
P39880-3|Q13948 and related entries (UniProt Q13948+P39880)	0.986 ± 0.012	1.02 ± 0.032
EIF2S2 (UniProt P20042)	0.979 ± 0.022	1.04 ± 0.039
UniProt P23229 and related entries	1.02 ± 0.019	0.987 ± 0.054
ZKSCAN1 (UniProt P17029)	1 ± 0.014	1 ± 0.024
UniProt P19784	1.06 ± 0.039	1.01 ± 0.13
UniProt P39687 and related entries	0.964 ± 0.012	0.996 ± 0.062
SDHB (UniProt P21912)	0.976 ± 0.029	1.04 ± 0.069
CHM (UniProt P24386)	0.99 ± 0.025	0.959 ± 0.043
UniProt P25445 and related entries	0.941 ± 0.029	0.998 ± 0.082
UniProt P27987 and related entries	0.979 ± 0.046	0.977 ± 0.018
AHCY (UniProt P23526)	1.012 ± 0.0095	1.03 ± 0.04
UniProt P35613 and related entries	0.9649 ± 0.0093	1 ± 0.026
ATP6V1B2 (UniProt P21281)	0.994 ± 0.025	1.01 ± 0.054
UniProt P28908 and related entries	0.9948 ± 0.0033	1.007 ± 0.0099

Target	NP40-soluble protein abundance (concentration: 0.1mM)	NP40-soluble protein abundance (concentration: 0.5mM)
CSRP1 (UniProt P21291)	0.9745 ± 0.0044	1.01 ± 0.023
UniProt P29590 and related entries	0.997 ± 0.04	1.02 ± 0.051
UniProt P22033	0.999 ± 0.021	0.9844 ± 0.0069
ACAT1 (UniProt P24752)	0.961 ± 0.0098	1.02 ± 0.026
RPS19 (UniProt P39019)	1.06 ± 0.058	1.04 ± 0.042
ABCD1 (UniProt P33897)	1.03 ± 0.023	1.008 ± 0.01
UniProt P37275-2|P37275-5|P37275	0.99 ± 0.027	0.975 ± 0.039
TRIM21 (UniProt P19474)	0.964 ± 0.015	0.957 ± 0.018
RPA1 (UniProt P27694)	0.988 ± 0.019	0.993 ± 0.051
UniProt P22694 and related entries	1 ± 0.028	0.987 ± 0.044
UniProt P32121 and related entries	1.02 ± 0.059	1.07 ± 0.043
ERP29 (UniProt P30040)	1 ± 0.059	1.03 ± 0.085
UniProt P29350 and related entries	1.01 ± 0.011	1.01 ± 0.035
AKT1 (UniProt P31749)	0.979 ± 0.038	0.959 ± 0.019
UniProt P37837 and related entries	1 ± 0.032	1.01 ± 0.057
BCKDHB (UniProt P21953)	1.02 ± 0.019	0.99 ± 0.087
DEK (UniProt P35659)	0.979 ± 0.043	1.04 ± 0.055
MAN1A1 (UniProt P33908)	1.01 ± 0.013	0.956 ± 0.029
UniProt P17544-2|P17544-4|P17544-6	0.969 ± 0.039	0.998 ± 0.05
GSTM2 (UniProt P28161)	1.01 ± 0.058	0.979 ± 0.076
PRDX6 (UniProt P30041)	1 ± 0.022	0.969 ± 0.074
UniProt P30626 and related entries	1.03 ± 0.059	1.06 ± 0.1
UniProt P29401 and related entries	0.9774 ± 0.0048	1.01 ± 0.018
UniProt P23469 and related entries	1.01 ± 0.025	0.987 ± 0.042

Copied from the list.
In NP40-soluble protein abundance (concentration: 0.1mM), UniProt P37275-2|P37275-5|P37275 has 0.99 ± 0.027
In NP40-soluble protein abundance (concentration: 0.1mM), BCKDHB (UniProt P21953) has 1.02 ± 0.019
In NP40-soluble protein abundance (concentration: 0.5mM), RPS19 (UniProt P39019) has 1.04 ± 0.042
In NP40-soluble protein abundance (concentration: 0.5mM), UniProt P29401 and related entries has 1.01 ± 0.018
In NP40-soluble protein abundance (concentration: 0.1mM), RPA1 (UniProt P27694) has 0.988 ± 0.019
